Test results from article PMC11696430, “A Water-Soluble Small Molecule Boron Carrier Targeting Biotin Receptors for Neutron Capture Therapy” (ACS Omega, 2024).

Test system: CT26 cells
Assay: Intracellular localization by immunostaining / boron sensor
Type: cell-based, mouse
Settings: CT26, ca. 25 μg [B]/mL, 3 h

N[C@@H](Cc1ccc(B(O)O)cc1)C(=O)O [BPA, 4-borono-L-phenylalanine, reference compound]
subcellular distribution: widely distributed throughout the cell, including the nucleus
